Results are given in words; binding and its absence hold for the method and conditions named. In cells and extracts the contact can be indirect. These calls come from enrichment with a bait or labelling near it, and not all partners need be listed. Tags and fused reporters may be left off the sequences shown.
B1: Ribonuclease pancreatic (protein, UniProt P00683 26-149)
chain: RESAAQKFQRQHMDPDGSSINSPTYCNQMMKRRDMTNGSCKPVNTFVHEPLADVQAVCSQENVTCKNRKSNCYKSSSALHITDCHLKGNSKYPNCDYKTTQYQKHIIVACEGNPYVPVHFDATV
B2: CUB and zona pellucida-like domain-containing protein 1 (protein, UniProt P70412 20-607)
chain: QLNSTEAEGKSRCTASLGGANLGETHKALVLQLSANENCTWTIERPENRSIRIIFSYIKLDPGSRCETENIKVFDGSSTSGPLLGKACSRNDFVPVFESSSNSMTFQIVTGLTKFPRSVFIFYYFFSAATVIPNCGGDLRALEGSFSSPNYPKPHPELAYCVWHIQVGKGYKIQLKFTDLLLEMDENCKFDFIAVYDGPSTTAGLLKQLCGRGKPTLESSSDAMTVVLSTDYANSYKGFSASYTSIYIHDVNTTSLSCVSDKMRVIISKSYLPALNYNESNLQLNDPTCRPNVSNVIEFSIPLHECGTVKKIEDHAISYTNRITFIESPVSAVITRQKLLQIVVTCEMEYNSTVEIMYITEDDIIQNQSVLGKYNTSLALYESDSFENLVQESPYYVDLNQTLFVQATLHTSDPSLVVFLDTCRASPTSDFASPTYDLISSGCCQDETCKVYPLFGHYGRFQFNAFKFLKHLNSVYLKCKILICDNNDQTSRCNQGCVPRRKRDIPSYKWKTDSVIGPIRLKRDRSASRDSGLLPQIHEAEISNQPLSRLYLFSFMVLALNVVIVAITTVKHFLNRWMDHRYQKLQVY
B3: Collagen α-2 (VI) chain (protein, UniProt Q02788 26-1034)
chain: QQQEAISPQEQEAVSPDISTTERNNNCPEKADCPVNVYFVLDTSESVAMQSPTDSLLYHMQQFVPQFISQLQNEFYLDQVALSWRYGGLHFSDQVEVFSPPGSDRASFTKSLQGIRSFRRGTFTDCALANMTQQIRQHVGKGVVNFAVVITDGHVTGSPCGGIKMQAERAREEGIRLFAVAPNRNLNEQGLRDIANSPHELYRNNYATMRPDSTEIDQDTINRIIKVMKHEAYGECYKVSCLEIPGPHGPKGYRGQKGAKGNMGEPGEPGQKGRQGDPGIEGPIGFPGPKGVPGFKGEKGEFGSDGRKGAPGLAGKNGTDGQKGKLGRIGPPGCKGDPGSRGPDGYPGEAGSPGERGDQGAKGDSGRPGRRGPPGDPGDKGSKGYQGNNGAPGSPGVKGGKGGPGPRGPKGEPGRRGDPGTKGGPGSDGPKGEKGDPGPEGPRGLAGEVGSKGAKGDRGLPGPRGPQGALGEPGKQGSRGDPGDAGPRGDSGQPGPKGDPGRPGFSYPGPRGTPGEKGEPGPPGPEGGRGDFGLKGTPGRKGDKGEPADPGPPGEPGPRGPRGIPGPEGEPGPPGDPGLTECDVMTYVRETCGCCDCEKRCGALDVVFVIDSSESIGYTNFTLEKNFVINVVNRLGAIAKDPKSETGTRVGVVQYSHEGTFEAIRLDDERVNSLSSFKEAVKNLEWIAGGTWTPSALKFAYNQLIKESRRQKTRVFAVVITDGRHDPRDDDLNLRALCDRDVTVTAIGIGDMFHETHESENLYSIACDKPQQVRNMTLFSDLVAEKFIDDMEDVLCPDPQIVCPELPCQTELYVAQCTQRPVDIVFLLDGSERLGEQNFHKVRRFVEDVSRRLTLARRDDDPLNARMALLQYGSQNQQQVAFPLTYNVTTIHEALERATYLNSFSHVGTGIVHAINNVVRGARGGARRHAELSFVFLTDGVTGNDSLEESVHSMRKQNVVPTVVAVGGDVDMDVLTKISLGDRAAIFREKDFDSLAQPSFFDRFIRWIC
B4: Perilipin-4 (protein, UniProt O88492 1-1403)
chain: MSASGDGTRVPPKSKGKTLSSFFGSLPGFSSARNLVSHTHSSTSTKDLQTATDPSGTPAPSSKVSTNSQMAGDAAGLLQPSEQTAGDKDMGSFSVTSSEDAFSGVFGIMDAAKGMVQGGLGATQSALVGTKEAVSGGVMGAVGVAKGLVKGGLDTSKNVLTNTKDTVTTGVMGAANMAKGTVQTGLDTTKSVVMGTKDTVATGLAGAVNVAKGTIQGGLDTTKSVVMGTKDTVTTGLTGAVNVAKGVVQGGLDTTKSVVMGTKDTVTTGLTGAMNVAKGTAQMGIDTSKTVLTGTKDTVCAGATGAINVAKGAAQGGLDTTKSVLIGTKDTVTTGLTGAVNVAKGAVQGGLDTTKSVVMGTKDTVTTGLTGAMNVAKGTAQMGLGTSKTVLTGTKDTVCAGLTGAINVAKGAAQGGLDTTKSVLMGTKDTVTTGLTGAVNVAKGTIQGGLDTTKSVVMGTKDTVTTGLTGAVNVAKGTIQGGLDTTKSVVMGTKDTVTTGLTGAVNVAKGAAQGGLDTTKSVVMGTKDTVTTGLTGAMNVAKGTAQMGLGTSKTVLTGTKDTVCAGLTGAINVAKGAAQGGLDTTKSVLMGTKDTVTTGLTGAVNVAKGTIQGGLDTTKSVVMGTKDTVTTGLTGAVNVAKGAVQGGLDTTKSVVMGTKDTVTTGLTGALNVAKGTAQMGIDTSKTVLIGTKDTVCAGATGAINMAKGAAQGGLDTTKSVLMGTKDTVTTGLTGAINVAKGSAQGGLDTTKSVLIGTKDTVTTGLTGALNVAKGTVQTGLDTSQRVLTGTKDNVYAGVTGAVNVAKGTIQGGLDTTKSVVMGTKDTVTTGLTGAVNVAKGAVQGGLDTTKSVVMGTKDTVTTGLTGAMNVAKGTAQMGIDTSKTVLTGTKDTVCAGLTGAINVAKGATQGGLDTTKSVLMGTKDTVTTGLTGAINVAKGAAQGGLDTTKSVLLGTKDTVTTGLTGAANVAKETVQMGLDTSKNILMDTKDSICAGATGAITVVKGAAQGGLDTSNAALTGTMDTAKGTVQTSLDTSKHMLIGMKDTVCAGVTSAMNMAKGIHKNTDTTRDTQSSVLAHSGNVATNAIHTGVHTVPSSLSGSHSIICHEPSIYRATNHGVGQAILTSTESLCCETSSFSDKYGLGHVTEPRADTKTLVSGMASSACAATRSVEECGQLAATGFAALPDELKGLGDIFQPMTTEEQAQLAVSESGPRVLSADRGSYYIRLGDLAPSFRQRAFEHALSHIQHNQFQARAALAQLQEAFQMTDMTMEAACGKLCSDQSLNTMVEAVGSHEMRASVAQDRLCTLAHQLHAAYSSLVTSLQGLPEVQQQAGQARHSLCKLYGLVSSEAGSELQTEQLAQSSAGVVEAWQGLEVLLEKLQQNPPLSWLVGPFTSMPCGQL
B5: α-2-HS-glycoprotein (protein, UniProt P29699 19-345)
chain: APQGTGLGFRELACDDPEAEQVALLAVDYLNNHLLQGFKQVLNQIDKVKVWSRRPFGVVYEMEVDTLETTCHALDPTPLANCSVRQLTEHAVEGDCDFHILKQDGQFRVMHTQCHSTPDSAEDVRKLCPRCPLLTPFNDTNVVHTVNTALAAFNTQNNGTYFKLVEISRAQNVPLPVSTLVEFVIAATDCTAKEVTDPAKCNLLAEKQHGFCKANLMHNLGGEEVSVACKLFQTQPQPANANAVGPVPTANAALPADPPASVVVGPVVVPRGLSDHRTYHDLRHAFSPVASVESASGETLHSPKVGQPGAAGPVSPMCPGRIRHFKI
B6: Perilipin-1 (protein, UniProt Q8CGN5 1-517)
chain: MSMNKGPTLLDGDLPEQENVLQRVLQLPVVSGTCECFQKTYNSTKEAHPLVASVCNAYEKGVQGASNLAAWSMEPVVRRLSTQFTAANELACRGLDHLEEKIPALQYPPEKIASELKGTISTRLRSARNSISVPIASTSDKVLGATLAGCELALGMAKETAEYAANTRVGRLASGGADLALGSIEKVVEFLLPPDKESAPSSGRQRTQKAPKAKPSLVRRVSTLANTLSRHTMQTTAWALKQGHSLAMWIPGVAPLSSLAQWGASAAMQVVSRRQSEVRVPWLHNLAASQDESHDDQTDTEGEETDDEEEEEESEAEENVLREVTALPNPRGLLGGVVHTVQNTLRNTISAVTWAPAAVLGTVGRILHLTPAQAVSSTKGRAMSLSDALKGVTDNVVDTVVHYVPLPRLSLMEPESEFRDIDNPSAEAERKGSGARPASPESTPRPGQPRGSLRSVRGLSAPSCPGLDDKTEASARPGFLAMPREKPARRVSDSFFRPSVMEPILGRAQYSQLRKKS
B7: Ribosome biogenesis regulatory protein homolog (protein, UniProt Q9CYH6 1-365)
chain: MEGQRVEELLAKAEQEEAEKLQRITVHKELELEFDLGNLLASDRNPPTVLRQAGPSPEAELRALARDNTQLLINQLWRLPTERVEEAVVARLPEPATRLPREKPLPRPRPLTRWQQFARLKGIRPKKKTNLVWDEASGQWRRRWGYKRARDDTKEWLIEVPGSADPMEDQFAKRTQAKKERVAKNELNRLRNLARAHKMQMPSSAGLHPTGHQSKEELGRAMQVAKVSTASVGRFQERLPKEKAPRGSGKKRKFQPLFGDFAAEKKNQLELLRVMNSKKPRLDVTRATNKQMREEDQEEAAKRRKMSQKGKRKGGRQGPSGKRKGGPPGQGEKRKGGLGSKKHSWPSALAGKKKGVPPQGGKRRK

Sequences of proteins named here, by UniProt entry; tags and fusion partners are left off.
UniProt Q6R891: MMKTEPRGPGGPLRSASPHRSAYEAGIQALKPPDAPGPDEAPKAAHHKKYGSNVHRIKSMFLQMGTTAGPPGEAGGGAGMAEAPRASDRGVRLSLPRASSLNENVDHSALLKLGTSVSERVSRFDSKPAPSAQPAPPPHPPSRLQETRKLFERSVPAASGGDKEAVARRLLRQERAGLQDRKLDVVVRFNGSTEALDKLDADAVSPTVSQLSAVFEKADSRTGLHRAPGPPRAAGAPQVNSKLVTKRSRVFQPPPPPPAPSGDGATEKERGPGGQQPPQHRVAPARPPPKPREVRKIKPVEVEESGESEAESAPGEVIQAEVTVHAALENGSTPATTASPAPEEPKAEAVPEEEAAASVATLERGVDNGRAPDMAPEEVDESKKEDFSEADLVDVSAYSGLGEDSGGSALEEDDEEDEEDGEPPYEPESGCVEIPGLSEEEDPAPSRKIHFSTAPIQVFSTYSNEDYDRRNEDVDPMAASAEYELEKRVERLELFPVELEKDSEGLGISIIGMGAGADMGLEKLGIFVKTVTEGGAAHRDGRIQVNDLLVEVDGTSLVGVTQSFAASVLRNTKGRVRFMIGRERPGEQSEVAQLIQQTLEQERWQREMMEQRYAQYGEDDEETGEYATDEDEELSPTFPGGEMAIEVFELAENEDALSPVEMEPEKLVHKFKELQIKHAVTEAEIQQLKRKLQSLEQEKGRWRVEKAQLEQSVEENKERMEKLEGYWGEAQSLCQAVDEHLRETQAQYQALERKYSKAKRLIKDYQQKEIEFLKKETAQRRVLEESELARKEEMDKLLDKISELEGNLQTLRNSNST

Target: Spinophilin (mouse (endogenous in pancreas and isolated islets)) (UniProt Q6R891)
Experiment: affinity purification with mass spectrometry; spinophilin immunoprecipitated from pancreas of WT chow-fed, WT high-fat diet-fed and Spino^-/- high-fat diet-fed male mice; on-bead digestion, TMT10plex; hits filtered by WT/KO log2 fold-enrichment of 0.5 and two unique peptides, listed hits increased in HFF vs. lean

Row | Binder | binding
1 | B1 | binds
2 | B2 | binds
3 | B3 | binds
4 | B4 | binds
5 | B5 | binds
6 | B6 | binds
7 | B7 | binds

— publication PMC11427100
